Data as given in PubChem BioAssay AID1053208 (Peter MacCallum Cancer Centre, 2014)
The whole screen tested about 17,000 reagents; below is a random part of them. Of all reagents, 788 (4.7%) are marked active. 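Calls rest on z-score classes alone; an extra cut-off of viability at most 70% of control was not applied to them.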 Not all columns of the deposit are shown.

- Assay: 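Synthetic lethal interactions between gene loss and doxorubicin in osteosarcoma cells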 (primary screen)
- Cell system: mouse osteosarcoma cells, early-passage culture from an engineered mouse model of fibroblastic bone tumour
- Reagents: siRNA pool against mouse genes, 40 nM
- Timing: about 120 h (48 h before drug, then 72 h with drug)
- Conditions: doxorubicin 100 nM for 72 h, roughly 30-40% inhibitory dose
- Measurement: 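Luminescent ATP signal taken as viability with or without 100 nM doxorubicin for 72 h; mean of two wells set against non-targeting siRNA and turned into robust z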
- Reading the numbers: viability z-score with doxorubicin: higher = more viable cells under doxorubicin; viability z-score without drug: higher = more viable cells with knock-down alone
- Rule for the call: 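Called active if knock-down leaves viability unchanged without drug (z within -2 to 2) but lowers it with doxorubicin (z at or under -2)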

Target gene	combined z-score class	viability z-score with doxorubicin	viability z-score without drug	outcome
Tle4	no change with or without drug	0.22	0.17	inactive
Shisa2	no change with or without drug	1.12	1.01	inactive
Prkce	high cell count with doxorubicin only	2.25	0.51	inactive
Rbm12	high cell count with and without drug	3.04	4.22	inactive
Mier2	no change with or without drug	-0.22	0.17	inactive
Hgs	no change with or without drug	0.79	1.52	inactive
Anapc16	no change with or without drug	0.79	0.34	inactive
Ube2g2	no change with or without drug	-1.57	-0.17	inactive
Cd8a	no change with or without drug	0.34	-0.84	inactive
Tmem116	no change with or without drug	-0.45	0.17	inactive
Cct8l1	no change with or without drug	-0.34	-1.18	inactive
Adgrl2	no change with or without drug	0.56	-0.17	inactive
Vamp4	no change with or without drug	-1.35	1.85	inactive
D830013H23Rik	no change with or without drug	0	1.35	inactive
Eif3g	low cell count with and without drug	-4.05	-3.54	inactive
Zdhhc3	low cell count with doxorubicin only	-2.36	0.51	active

Records listed above called active (1):
Target gene	combined z-score class	viability z-score with doxorubicin	viability z-score without drug	outcome
Zdhhc3	low cell count with doxorubicin only	-2.36	0.51	active

More entries:
Target gene	combined z-score class	viability z-score with doxorubicin	viability z-score without drug	outcome
Or13c7d	no change with or without drug	0.9	-1.01	inactive
Slc19a3	low cell count with and without drug	-4.27	-3.2	inactive
Vmn1r28	no change with or without drug	-1.46	-0.51	inactive
Ctsf	no change with or without drug	0	-1.52	inactive
Trpc6	no change with or without drug	-1.35	0.17	inactive
Rab33a	no change with or without drug	0.45	0.34	inactive
Zfp12	no change with or without drug	1.35	0.51	inactive
Tmbim1	no change with or without drug	-0.34	0.84	inactive
Or2a25	no change with or without drug	-0.22	-1.18	inactive
Prrc2a	no change with or without drug	1.01	-0.17	inactive
Wac	no change with or without drug	1.01	1.35	inactive
Nlrp9c	no change with or without drug	1.57	1.01	inactive
Mfsd1	no change with or without drug	-1.24	1.01	inactive
Dhrs7	no change with or without drug	1.46	1.69	inactive
Nfu1	no change with or without drug	1.69	1.52	inactive
Aldh1b1	no change with or without drug	0	1.01	inactive
Vsx2	no change with or without drug	0	1.52	inactive
Fscn2	no change with or without drug	-0.45	-1.18	inactive
